Among the data in paper PMC8225803 are binding values, retold here.

Protein sequences, listed by entry. Tags and fused reporters are not part of them.
UniProt P12270: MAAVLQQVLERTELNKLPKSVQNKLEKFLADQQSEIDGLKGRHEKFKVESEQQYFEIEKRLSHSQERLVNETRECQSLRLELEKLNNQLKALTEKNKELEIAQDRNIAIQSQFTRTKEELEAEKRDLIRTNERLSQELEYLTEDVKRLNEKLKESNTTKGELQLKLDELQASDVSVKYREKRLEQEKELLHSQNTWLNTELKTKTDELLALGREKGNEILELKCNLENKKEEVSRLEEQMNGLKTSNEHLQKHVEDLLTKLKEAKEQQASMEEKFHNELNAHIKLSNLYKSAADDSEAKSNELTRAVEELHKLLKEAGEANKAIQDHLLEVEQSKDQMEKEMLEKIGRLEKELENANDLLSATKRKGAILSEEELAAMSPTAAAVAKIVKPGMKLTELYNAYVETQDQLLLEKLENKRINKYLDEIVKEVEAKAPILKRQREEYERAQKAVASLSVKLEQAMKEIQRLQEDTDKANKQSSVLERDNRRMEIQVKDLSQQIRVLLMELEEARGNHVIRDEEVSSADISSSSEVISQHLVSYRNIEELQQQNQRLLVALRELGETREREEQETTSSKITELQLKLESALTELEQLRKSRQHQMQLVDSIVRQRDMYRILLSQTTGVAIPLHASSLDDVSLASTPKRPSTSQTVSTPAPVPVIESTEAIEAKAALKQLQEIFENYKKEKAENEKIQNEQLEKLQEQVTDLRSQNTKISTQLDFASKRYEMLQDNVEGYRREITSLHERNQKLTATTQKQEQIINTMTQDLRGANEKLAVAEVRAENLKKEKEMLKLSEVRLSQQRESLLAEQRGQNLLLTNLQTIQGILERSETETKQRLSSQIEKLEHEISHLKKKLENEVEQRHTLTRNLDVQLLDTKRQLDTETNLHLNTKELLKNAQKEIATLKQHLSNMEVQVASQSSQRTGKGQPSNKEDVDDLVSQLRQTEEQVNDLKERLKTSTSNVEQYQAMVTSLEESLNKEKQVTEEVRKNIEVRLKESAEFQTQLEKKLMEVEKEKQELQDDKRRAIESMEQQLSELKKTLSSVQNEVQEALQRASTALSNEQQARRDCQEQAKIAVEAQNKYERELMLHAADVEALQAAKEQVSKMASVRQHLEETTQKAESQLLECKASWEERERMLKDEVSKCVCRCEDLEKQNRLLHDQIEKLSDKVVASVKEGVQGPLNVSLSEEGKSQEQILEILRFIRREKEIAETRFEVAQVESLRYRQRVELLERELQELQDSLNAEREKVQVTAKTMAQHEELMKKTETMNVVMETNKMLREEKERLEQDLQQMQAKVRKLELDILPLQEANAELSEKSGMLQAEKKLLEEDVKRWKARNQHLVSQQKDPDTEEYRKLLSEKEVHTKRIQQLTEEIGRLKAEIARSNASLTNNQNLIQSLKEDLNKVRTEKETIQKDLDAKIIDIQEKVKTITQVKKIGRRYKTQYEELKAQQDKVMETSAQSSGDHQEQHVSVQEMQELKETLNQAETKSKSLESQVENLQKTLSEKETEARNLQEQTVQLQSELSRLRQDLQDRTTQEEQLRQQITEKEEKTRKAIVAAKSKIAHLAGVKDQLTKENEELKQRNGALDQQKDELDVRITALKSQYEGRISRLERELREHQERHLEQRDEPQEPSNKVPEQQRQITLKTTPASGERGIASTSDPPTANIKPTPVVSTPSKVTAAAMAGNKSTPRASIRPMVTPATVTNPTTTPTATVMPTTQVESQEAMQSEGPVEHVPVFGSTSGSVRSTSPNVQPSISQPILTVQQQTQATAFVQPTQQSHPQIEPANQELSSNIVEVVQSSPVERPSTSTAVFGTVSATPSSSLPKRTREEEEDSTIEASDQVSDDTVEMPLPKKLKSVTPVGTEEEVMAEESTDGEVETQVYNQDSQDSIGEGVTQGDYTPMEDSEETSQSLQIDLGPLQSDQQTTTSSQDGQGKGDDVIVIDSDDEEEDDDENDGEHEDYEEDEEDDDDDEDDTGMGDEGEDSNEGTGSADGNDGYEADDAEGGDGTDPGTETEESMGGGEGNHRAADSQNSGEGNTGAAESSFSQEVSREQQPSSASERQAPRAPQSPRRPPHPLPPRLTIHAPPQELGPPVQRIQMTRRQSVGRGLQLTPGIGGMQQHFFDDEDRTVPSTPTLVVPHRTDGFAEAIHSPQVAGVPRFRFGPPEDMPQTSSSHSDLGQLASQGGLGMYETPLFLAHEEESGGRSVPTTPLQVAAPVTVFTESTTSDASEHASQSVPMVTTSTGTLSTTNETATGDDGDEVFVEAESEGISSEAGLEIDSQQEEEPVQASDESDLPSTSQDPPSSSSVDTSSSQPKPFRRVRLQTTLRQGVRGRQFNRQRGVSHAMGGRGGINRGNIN
UniProt O60318: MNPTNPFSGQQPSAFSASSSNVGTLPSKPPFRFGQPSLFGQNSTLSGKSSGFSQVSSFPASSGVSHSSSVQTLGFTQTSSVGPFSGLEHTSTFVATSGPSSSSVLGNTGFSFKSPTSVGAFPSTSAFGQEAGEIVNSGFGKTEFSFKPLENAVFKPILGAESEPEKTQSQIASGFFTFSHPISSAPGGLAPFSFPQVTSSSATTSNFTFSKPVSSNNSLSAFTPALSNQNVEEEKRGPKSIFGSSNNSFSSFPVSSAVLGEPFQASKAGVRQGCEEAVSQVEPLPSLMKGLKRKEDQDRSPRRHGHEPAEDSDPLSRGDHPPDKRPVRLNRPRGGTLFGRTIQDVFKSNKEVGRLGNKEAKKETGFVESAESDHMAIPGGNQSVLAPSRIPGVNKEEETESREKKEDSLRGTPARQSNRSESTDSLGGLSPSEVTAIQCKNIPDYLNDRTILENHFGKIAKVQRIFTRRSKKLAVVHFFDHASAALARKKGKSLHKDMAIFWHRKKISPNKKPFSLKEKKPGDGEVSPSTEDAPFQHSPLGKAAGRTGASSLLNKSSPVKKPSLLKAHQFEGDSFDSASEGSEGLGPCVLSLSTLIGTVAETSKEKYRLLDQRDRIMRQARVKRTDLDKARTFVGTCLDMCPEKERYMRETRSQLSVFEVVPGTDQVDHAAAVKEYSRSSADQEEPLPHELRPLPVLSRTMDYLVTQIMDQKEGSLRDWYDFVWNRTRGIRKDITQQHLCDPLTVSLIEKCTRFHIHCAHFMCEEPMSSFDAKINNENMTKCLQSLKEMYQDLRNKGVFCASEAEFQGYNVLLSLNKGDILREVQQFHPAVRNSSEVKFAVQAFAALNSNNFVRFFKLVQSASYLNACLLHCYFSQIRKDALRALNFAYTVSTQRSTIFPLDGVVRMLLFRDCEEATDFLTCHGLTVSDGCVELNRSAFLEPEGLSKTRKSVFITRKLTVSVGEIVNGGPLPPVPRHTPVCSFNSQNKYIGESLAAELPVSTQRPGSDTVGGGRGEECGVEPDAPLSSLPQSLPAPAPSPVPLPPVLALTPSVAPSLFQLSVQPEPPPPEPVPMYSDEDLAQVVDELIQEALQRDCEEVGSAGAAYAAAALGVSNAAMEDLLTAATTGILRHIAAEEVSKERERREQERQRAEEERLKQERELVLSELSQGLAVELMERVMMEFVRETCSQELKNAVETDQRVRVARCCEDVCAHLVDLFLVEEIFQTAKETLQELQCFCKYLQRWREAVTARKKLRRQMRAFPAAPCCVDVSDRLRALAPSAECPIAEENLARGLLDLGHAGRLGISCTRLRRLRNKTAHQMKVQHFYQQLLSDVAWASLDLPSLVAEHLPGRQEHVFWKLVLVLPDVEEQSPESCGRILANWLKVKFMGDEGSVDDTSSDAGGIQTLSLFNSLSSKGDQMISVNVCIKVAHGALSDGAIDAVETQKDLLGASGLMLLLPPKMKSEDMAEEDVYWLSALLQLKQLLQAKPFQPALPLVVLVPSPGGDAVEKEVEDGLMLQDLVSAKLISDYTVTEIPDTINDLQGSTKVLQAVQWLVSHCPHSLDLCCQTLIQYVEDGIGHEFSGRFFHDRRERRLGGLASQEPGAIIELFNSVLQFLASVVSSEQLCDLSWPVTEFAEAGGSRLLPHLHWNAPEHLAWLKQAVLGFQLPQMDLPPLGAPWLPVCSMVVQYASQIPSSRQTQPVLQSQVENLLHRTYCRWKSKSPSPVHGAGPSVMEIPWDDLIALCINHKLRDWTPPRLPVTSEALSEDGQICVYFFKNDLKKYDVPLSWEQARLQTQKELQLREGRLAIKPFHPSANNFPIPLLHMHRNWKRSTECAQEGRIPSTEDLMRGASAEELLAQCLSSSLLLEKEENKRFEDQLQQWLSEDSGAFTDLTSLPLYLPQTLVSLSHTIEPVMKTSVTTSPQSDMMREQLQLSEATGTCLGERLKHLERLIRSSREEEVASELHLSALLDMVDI

The target of the experiment is Tpr (translocated promoter region), endogenous (human (endogenous in U-2 OS)) (UniProt P12270). Description: affinity purification with mass spectrometry; previously conducted label-free mass-spectrometry analysis without stable isotopes, in the same cell type (U-2 OS); bait and beads not told.

Results are given in words; binding and its absence hold for the method and conditions named. Binding seen in cells or lysates may run through a third protein. Here binding means that the protein was enriched with, or labelled near, the bait; the list need not be complete.

Take “Minichromosome maintenance complex component 3 associated protein (from UniProt O60318 1-1980)”: the binding result is on record as “binds”.
